Laboratory results from article PMC4832065.
These are yes or no findings as the source states them, for the method shown. In cells and extracts the contact can be indirect. For some assays here: A result given as binding can be weak or reduced; the word gives no strength.

The chains behind the UniProt entries cited, without tags or fusion partners. Where a name states a change or a piece, a line headed by the entry shows the natural chain unless it says otherwise.
UniProt Q9Y6K9: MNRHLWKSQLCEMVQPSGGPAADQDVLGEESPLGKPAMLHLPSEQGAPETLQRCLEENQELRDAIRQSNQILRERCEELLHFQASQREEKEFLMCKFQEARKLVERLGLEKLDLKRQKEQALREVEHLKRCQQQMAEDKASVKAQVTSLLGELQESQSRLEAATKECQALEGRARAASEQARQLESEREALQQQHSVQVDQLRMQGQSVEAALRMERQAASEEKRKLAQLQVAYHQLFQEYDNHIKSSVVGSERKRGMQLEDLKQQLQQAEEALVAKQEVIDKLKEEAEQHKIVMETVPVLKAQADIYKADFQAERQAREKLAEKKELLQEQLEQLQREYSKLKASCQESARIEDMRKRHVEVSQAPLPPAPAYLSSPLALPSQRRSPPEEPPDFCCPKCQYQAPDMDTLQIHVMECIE
UniProt Q9UDY8: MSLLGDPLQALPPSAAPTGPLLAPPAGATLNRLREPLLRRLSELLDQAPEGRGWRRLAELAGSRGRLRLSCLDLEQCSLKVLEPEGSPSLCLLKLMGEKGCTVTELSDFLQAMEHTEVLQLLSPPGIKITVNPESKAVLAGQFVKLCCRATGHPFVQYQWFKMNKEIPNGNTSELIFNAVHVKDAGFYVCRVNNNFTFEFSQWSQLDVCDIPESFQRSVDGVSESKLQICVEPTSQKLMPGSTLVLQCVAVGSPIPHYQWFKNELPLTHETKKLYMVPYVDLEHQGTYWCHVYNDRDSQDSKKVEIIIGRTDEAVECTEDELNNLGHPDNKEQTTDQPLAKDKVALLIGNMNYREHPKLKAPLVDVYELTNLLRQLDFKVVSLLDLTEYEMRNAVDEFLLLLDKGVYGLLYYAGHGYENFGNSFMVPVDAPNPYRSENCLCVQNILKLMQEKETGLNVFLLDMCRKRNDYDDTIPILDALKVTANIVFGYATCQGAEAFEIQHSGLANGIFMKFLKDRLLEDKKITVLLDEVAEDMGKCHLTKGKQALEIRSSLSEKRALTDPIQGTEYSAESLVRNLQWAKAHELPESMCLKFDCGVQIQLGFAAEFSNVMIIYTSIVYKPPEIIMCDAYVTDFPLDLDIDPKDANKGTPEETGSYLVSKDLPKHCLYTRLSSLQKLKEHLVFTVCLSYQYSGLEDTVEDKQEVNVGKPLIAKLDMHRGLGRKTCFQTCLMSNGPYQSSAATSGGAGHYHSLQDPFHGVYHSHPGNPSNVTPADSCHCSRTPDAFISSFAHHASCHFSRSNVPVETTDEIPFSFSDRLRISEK

Legend:
[1] = molecular target: NEMO (IKK regulatory subunit) (human (endogenous in Jurkat)) (UniProt Q9Y6K9); test: co-IP; NEMO IP (anti-NEMO, overnight 4 °C, Protein G Sepharose) from lysates of reconstituted MALT1-deficient Jurkat T cells after P/I stimulation; co-IP buffer; MALT1 detected by western blot, modified MALT1 indicative of ubiquitination
[2] = molecular target: MALT1B T6BM3 EA-StrepTagII (mutation of the binding site T6BM3 in MALT1B) (human) (UniProt Q9UDY8); test: pull-down; StrepT-PD: MALT1-StrepTagII variants precipitated on Strep-Tactin Sepharose (4 °C overnight) from lysates of reconstituted MALT1-deficient Jurkat T cells after 30 min P/I stimulation; co-IP buffer (25 mM HEPES pH 7.5, 150 mM NaCl, 0.2% NP-40, 10% glycerol, 1 mM DTT); western blot

Row | binding [1] | binding [2] | Molecule
1 | no binding |  | MALT1B T6BM3 EA-StrepTagII (mutation of the binding site T6BM3 in MALT1B) (from UniProt Q9UDY8-2)
2 |  | binds | BCL10 (protein, UniProt O95999 1-233) MEPTAPSLTEEDLTEVKKDALENLRVYLCEKIIAERHFDHLRAKKILSREDTEEISCRTSSRKRAGKLLDYLQENPKGLDTLVESIRREKTQNFLIQKITDEVLKLRNIKLEHLKGLKCSSCEPFPDGATNNLSRSNSDESNFSEKLRASTVMYHPEGESSTTPFFSTNSSLNLPVLEVGRTENTIFSSTTLPRPGDPGAPPLPPDLQLEEEGTCANSSEMFLPLRSRTVSRQ
